{
  "source": "patent US10144947B2",
  "about": "“Method for detecting, identifying and enumerating micro-organisms in a porous support dry-impregnated with a dehydrated reaction medium” (BIOMÉRIEUX, priority 2014, dated 2018)",
  "key": {"E. coli ATCC 25922": {"test_system": "E. coli ATCC 25922", "assay": "Growth (colony count) on ChromID CPS3 with 1 mg/l imipenem, agar medium or impregnated porous support", "type": "cell-based, Escherichia coli", "details": "for CFU, ChromID CPS3 with 1 mg/l imipenem: replicate counts", "experimental": "(§1) To produce the agar media, a liter of water is added to the test specimen of the dry medium, i.e. 38.3 g for ChromID CPS3. The dry medium is then dissolved with stirring, brought to the boil then sterilized by autoclaving. After cooling the agar medium to 55° C., the imipenem sterilized by filtration is added at a concentration of 1 mg/l. To carry out impregnation according to the present invention of the dry medium Chrom ID CPS3, a test specimen of the dry medium corresponding to the manufacture of one liter of medium is taken, i.e. 26 g, to which test specimen xanthan (20 g) and imipenem […] are added. All the constituents are then mixed together in a Turbula®. The porous supports are then impregnated by the culture media powder produced as described above and sterilized by gamma radiation between 10 and 17 kGy."}, "[1]": {"test_system": "Pseudomonas aeruginosa ATCC 27853", "assay": "Growth (colony count) on ChromID CPS3 with 1 mg/l imipenem, agar medium or impregnated porous support", "type": "cell-based", "details": "for CFU, ChromID CPS3 with 1 mg/l imipenem: starting concentration 10^3 CFU/ml, replicate counts", "experimental": "as §1"}, "[2]": {"details": "porous supports according to the invention and ChromID CPS3 agar media"}},
  "note": "At least one compound was matched to its structure with a doubt left.",
  "data": [
    {"smiles": "C[C@@H](O)[C@H]1C(=O)N2C(C(=O)O)=C(SCCN=CN)C[C@H]12", "note": "[imipenem]", "values": [
      {"measurement": "CFU, ChromID CPS3 with 1 mg/l imipenem", "setting": "E. coli ATCC 25922; ChromID CPS3 agar, starting concentration 10^3 CFU/ml", "result": "0/0/0"},
      {"measurement": "CFU, ChromID CPS3 with 1 mg/l imipenem", "setting": "E. coli ATCC 25922; ChromID CPS3 agar, starting concentration 10^5 CFU/ml", "result": "0/0/0"},
      {"measurement": "CFU, ChromID CPS3 with 1 mg/l imipenem", "setting": "E. coli ATCC 25922; porous support according to the invention, starting concentration 10^3 CFU/ml", "result": "0/0/0/0/0/0"},
      {"measurement": "CFU, ChromID CPS3 with 1 mg/l imipenem", "setting": "E. coli ATCC 25922; porous support according to the invention, starting concentration 10^5 CFU/ml", "result": "0/0/0/0/0/0"},
      {"measurement": "growth in the presence of 1 mg/l imipenem (in words)", "setting": "E. coli ATCC 25922; [2]", "result": "absence of growth"},
      {"measurement": "CFU, ChromID CPS3 with 1 mg/l imipenem", "setting": "[1]; ChromID CPS3 agar", "result": "69/61/73"},
      {"measurement": "CFU, ChromID CPS3 with 1 mg/l imipenem", "setting": "[1]; porous support according to the invention", "result": "40/53/38/39/46/56"},
      {"measurement": "growth in the presence of 1 mg/l imipenem (in words)", "setting": "[1]; [2]", "result": "growth"}
    ]}
  ]
}
